Data taken from PMC4493782.
These are yes or no findings as the source states them, for the method shown. For some of these results: Binding seen in cells or lysates may run through a third protein. Some results given as binding are weak or reduced against the parent protein; the word gives no strength. Tags and fused reporters may be left off the sequences shown.

By UniProt entry, the sequences of proteins in these tests, tags left out.
UniProt Q9SJ66: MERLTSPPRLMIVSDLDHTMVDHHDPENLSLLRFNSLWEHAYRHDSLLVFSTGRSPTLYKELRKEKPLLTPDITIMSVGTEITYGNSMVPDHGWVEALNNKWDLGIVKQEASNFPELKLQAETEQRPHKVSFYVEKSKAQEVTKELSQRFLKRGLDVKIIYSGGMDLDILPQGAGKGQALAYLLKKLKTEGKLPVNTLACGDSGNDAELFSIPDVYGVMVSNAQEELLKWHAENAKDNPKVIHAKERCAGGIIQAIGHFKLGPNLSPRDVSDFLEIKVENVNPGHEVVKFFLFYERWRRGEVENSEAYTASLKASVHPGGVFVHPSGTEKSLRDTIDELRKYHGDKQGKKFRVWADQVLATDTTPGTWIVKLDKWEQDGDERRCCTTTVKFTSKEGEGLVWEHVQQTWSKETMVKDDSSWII

T1: hRLUC-AtSPS (N-terminally tagged Renilla luciferase fusion of AtSPS, At5g20280) (Arabidopsis thaliana) (UniProt Q94BT0)
T1 sequence: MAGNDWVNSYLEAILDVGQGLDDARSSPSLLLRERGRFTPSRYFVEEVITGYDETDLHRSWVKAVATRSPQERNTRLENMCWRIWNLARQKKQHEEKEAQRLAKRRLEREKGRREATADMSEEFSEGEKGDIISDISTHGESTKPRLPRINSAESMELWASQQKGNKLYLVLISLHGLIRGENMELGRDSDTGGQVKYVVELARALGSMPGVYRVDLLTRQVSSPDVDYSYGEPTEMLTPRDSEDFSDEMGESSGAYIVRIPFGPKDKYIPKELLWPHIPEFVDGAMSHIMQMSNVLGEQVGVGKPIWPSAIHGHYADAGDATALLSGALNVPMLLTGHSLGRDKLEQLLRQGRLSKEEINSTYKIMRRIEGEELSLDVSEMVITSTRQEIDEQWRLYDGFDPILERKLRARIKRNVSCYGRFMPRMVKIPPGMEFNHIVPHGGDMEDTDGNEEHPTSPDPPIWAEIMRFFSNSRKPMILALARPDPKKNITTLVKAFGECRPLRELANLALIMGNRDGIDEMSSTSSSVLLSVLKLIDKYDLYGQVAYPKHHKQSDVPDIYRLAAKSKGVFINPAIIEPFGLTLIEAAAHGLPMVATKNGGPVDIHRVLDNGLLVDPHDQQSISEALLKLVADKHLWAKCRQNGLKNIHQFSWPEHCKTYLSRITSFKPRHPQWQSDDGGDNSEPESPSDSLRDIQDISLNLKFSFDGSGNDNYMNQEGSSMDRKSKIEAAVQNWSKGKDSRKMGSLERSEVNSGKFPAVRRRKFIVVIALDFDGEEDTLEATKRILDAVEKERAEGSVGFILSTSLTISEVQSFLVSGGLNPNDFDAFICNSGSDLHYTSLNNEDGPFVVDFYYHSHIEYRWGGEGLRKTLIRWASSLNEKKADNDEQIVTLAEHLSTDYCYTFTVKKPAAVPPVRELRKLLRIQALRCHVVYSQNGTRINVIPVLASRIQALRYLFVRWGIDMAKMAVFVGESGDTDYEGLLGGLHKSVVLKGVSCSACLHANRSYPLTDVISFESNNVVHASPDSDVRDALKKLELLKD

T2: AtSPS-hRLUC (C-terminally tagged Renilla luciferase fusion of AtSPS, At5g20280) (Arabidopsis thaliana) (UniProt Q94BT0)
T2 sequence: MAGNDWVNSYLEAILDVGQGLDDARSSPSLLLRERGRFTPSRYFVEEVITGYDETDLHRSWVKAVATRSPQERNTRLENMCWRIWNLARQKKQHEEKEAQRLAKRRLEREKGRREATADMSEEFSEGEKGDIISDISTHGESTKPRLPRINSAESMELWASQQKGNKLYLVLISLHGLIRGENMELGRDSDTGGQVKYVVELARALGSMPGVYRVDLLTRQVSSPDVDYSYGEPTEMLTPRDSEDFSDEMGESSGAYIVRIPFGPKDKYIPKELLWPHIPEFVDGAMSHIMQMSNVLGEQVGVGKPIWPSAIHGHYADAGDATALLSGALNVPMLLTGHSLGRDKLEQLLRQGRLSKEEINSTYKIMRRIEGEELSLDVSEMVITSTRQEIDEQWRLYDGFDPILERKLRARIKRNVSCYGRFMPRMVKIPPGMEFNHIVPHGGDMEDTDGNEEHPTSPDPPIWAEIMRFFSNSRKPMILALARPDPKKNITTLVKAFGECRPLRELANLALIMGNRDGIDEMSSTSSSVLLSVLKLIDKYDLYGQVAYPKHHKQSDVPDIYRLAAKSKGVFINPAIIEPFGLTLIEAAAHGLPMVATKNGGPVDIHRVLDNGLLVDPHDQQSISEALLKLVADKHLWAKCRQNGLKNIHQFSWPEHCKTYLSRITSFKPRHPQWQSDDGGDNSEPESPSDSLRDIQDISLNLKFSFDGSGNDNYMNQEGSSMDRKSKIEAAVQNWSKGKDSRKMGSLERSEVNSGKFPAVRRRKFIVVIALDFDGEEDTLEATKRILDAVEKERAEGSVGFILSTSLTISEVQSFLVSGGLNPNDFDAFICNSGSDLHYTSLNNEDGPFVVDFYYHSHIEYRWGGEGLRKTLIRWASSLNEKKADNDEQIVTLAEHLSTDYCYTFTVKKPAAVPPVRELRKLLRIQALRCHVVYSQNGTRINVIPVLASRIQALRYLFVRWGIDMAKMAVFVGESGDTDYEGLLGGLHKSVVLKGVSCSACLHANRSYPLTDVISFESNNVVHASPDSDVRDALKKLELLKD

T3: AtSPS5b (At5g20280), sucrose phosphate synthase, fused to the GAL4 DNA-binding domain (Arabidopsis thaliana) (UniProt Q94BT0)
T3 sequence: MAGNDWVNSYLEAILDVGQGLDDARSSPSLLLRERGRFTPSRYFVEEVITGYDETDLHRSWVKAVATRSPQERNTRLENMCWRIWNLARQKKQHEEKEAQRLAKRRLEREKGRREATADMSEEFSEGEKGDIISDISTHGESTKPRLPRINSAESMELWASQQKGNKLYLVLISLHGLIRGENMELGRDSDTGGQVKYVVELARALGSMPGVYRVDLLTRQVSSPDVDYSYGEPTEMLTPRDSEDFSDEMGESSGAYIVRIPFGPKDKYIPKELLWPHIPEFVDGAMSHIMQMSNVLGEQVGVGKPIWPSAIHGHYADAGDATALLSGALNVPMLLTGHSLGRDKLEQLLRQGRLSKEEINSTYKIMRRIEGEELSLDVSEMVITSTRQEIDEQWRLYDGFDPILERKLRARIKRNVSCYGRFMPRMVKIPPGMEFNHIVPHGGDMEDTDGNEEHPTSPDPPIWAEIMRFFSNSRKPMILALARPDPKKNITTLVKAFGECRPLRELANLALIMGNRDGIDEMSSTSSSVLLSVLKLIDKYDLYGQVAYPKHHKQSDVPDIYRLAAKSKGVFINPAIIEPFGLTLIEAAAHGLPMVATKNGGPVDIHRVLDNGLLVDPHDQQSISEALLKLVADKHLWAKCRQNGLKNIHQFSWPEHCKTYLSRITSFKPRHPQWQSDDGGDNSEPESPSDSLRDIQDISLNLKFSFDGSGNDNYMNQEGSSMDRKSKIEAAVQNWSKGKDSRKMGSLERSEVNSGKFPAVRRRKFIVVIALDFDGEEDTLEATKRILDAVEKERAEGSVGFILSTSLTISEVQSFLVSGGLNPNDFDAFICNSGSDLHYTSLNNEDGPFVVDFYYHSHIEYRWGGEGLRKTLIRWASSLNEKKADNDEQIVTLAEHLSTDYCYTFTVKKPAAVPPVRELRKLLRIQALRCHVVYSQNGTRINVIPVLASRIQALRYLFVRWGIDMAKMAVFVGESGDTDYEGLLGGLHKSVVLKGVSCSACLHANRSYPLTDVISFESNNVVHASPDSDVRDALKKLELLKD

T4: YN-tagged AtSPS (At5g20280) (Arabidopsis thaliana) (UniProt Q94BT0)
T4 sequence: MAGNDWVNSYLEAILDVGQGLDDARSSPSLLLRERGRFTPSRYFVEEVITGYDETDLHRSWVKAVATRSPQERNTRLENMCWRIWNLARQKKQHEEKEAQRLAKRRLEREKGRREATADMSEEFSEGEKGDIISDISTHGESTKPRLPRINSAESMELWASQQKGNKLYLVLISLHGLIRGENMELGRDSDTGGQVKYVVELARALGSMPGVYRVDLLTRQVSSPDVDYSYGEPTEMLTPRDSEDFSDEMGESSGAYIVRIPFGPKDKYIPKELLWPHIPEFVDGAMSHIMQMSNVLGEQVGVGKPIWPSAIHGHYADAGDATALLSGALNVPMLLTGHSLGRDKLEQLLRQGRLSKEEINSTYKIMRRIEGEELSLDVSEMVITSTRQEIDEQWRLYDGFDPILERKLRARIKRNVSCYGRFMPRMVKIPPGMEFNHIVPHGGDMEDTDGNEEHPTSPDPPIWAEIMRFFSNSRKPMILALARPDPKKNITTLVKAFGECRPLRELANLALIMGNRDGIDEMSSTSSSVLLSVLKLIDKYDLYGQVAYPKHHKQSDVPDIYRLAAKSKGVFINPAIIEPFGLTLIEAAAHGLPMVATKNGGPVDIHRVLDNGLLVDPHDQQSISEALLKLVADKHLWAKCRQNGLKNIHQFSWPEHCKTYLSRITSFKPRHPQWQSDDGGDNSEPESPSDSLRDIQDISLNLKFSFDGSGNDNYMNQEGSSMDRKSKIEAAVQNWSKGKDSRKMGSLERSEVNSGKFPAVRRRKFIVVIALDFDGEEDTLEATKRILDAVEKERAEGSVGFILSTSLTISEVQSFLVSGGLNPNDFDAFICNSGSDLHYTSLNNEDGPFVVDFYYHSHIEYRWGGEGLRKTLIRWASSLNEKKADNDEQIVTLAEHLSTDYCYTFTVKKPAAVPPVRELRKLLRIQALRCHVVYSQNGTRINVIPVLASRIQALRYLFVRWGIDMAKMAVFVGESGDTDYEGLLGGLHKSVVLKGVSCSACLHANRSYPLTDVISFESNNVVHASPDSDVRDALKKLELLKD


How the values were obtained:
[1] = target: T1, hRLUC-AtSPS (N-terminally tagged Renilla luciferase fusion of AtSPS, At5g20280) (Arabidopsis thaliana); assay: FRET or BRET; in planta BRET in double transgenic Arabidopsis seedlings of the Atspp- mutant background; 1 uM coelenterazine; yellow/blue luminescence ratio against RLUC alone
[2] = target: T2, AtSPS-hRLUC (C-terminally tagged Renilla luciferase fusion of AtSPS, At5g20280) (Arabidopsis thaliana); assay: FRET or BRET; in planta BRET in double transgenic Arabidopsis seedlings of the Atsps- mutant background; 1 uM coelenterazine; yellow/blue luminescence ratio against RLUC alone
[3] = target: T3, AtSPS5b (At5g20280), sucrose phosphate synthase, fused to the GAL4 DNA-binding domain (Arabidopsis thaliana); assay: two-hybrid; ProQuest system, S. cerevisiae MaV203; AtSPS on the GAL4 DNA-binding domain (pDEST32), AtSPP on the GAL4 activation domain (pDEST22); growth on SC-Leu-Trp-His+10 mM 3AT, no growth on 0.2% 5FOA, X-gal colour
[4] = target: T4, YN-tagged AtSPS (At5g20280) (Arabidopsis thaliana); assay: split reporter; BiFC with YN and YC fragments of YFP in transiently transformed N. tabacum leaf epidermal cells; YFP fluorescence 48 h to 65 h after infiltration

Row | Molecule | binding [4] | further results
1 | AtSPP-YFP (C-terminally YFP-tagged AtSPP, At2g35840) (from UniProt Q9SJ66 1-422) (enzyme) |  | binding [1]: binds; binding [2]: binds
2 | AtSPP (At2g35840), sucrose phosphate phosphatase, fused to the GAL4 activation domain (from UniProt Q9SJ66 1-422) (enzyme) |  | binding [3]: binds
3 | YC-tagged AtSPP1 (At1g51420) (enzyme, UniProt Q9C8J4 1-423) MERLTSPPRLMIVSDLDETMVDHHKDPENLALLRFNSLWEDAYRHDSLLVFSTGRAQTMYKKLRKEKPLLTPDVIITSVGTEIAYGNSMVPDDNWVEILNKKWDRGIVQEETSKFPELTLQGETEQRPHKLSFNIDKSKVKAVTKELSPRLEKRGVDVKFIFSGGNAFDVLAKGGGKGQALAYLLKKLKTEGKLPINTLACGDSGNDTELFTIPNVYGVMVSNAQEELLEWYAENAKDNANIIHASERCAGGITQAIGHFKLGPNLSPRDVSDFLECKADNVNPGHEVVKFFLFYERWRRGEVENCTTYTSSLKASCHPSGVFVHPSGAEKSLRDTIDELGKYYGDKKGKKFRVWTDQVLATDTTPGTWIVKLDKWEQTGDERKCCTTTVKFTSKEGEGFVWEHVQQIWSEETEIKDDSNWII | binds | 
4 | YC-tagged AtSPP3(3a) (At3g54270) (enzyme, UniProt Q93WU4 1-425) MDRLEGPPRLILVADLDCTLVDHDDPENNDLLRFNALWEAHYRHDSLLVYCTGRSFSSYSSLRKKRPLLTPDIAVTSVGSEIVYGGGESTVSDVVWTARLDYKWNRDIVVEETLKFPKLEPQPDKSQEEHKVSFFVGREDAVEIMKVLPGILEERGVDVKLVYSNGYAFDVLPRGAGKQGALTYLLDKLDIEGKQPSNTLVCGDSGNDAELFNISDVYGVMVSNSHEELLQWYEENAKDNPKIFHASERCGAGMIEAIQRFNLGPNVSPRDVMDTENFHGESLNPAHEVVQFYLFYERWRCGEVEKSDKYLQNLKSLSSPLGIFVHPSGVEKPIHEWIDEMENLYGDGKEKKFRIWLDNVTSSHISSDTWLAKFVKHELSEGKVRSCSTKVLLSYKEEKQRLTWMHIHQSWLDESSSDDQEKWIF | binds | 

More lines, main results first:

Row | binding [4] | Molecule | further results
5 | binds | YC-tagged AtSPP2 (At2g35840) (from UniProt Q9SJ66 1-422) (enzyme) | 
6 | binds | YC-tagged AtSPP4(3b) (At3g52340) (enzyme, UniProt Q93XN8 1-423) MERLISHPPLMIVSDLDHTMVDHQDHENLSLLRFNSLWEYAYRRDSLLVFSTARSPVLYKELRKEKPLLTPDIIITSIGTEIAFGNSMVPDHAWVESLNSCKWNREIVLEETSKFPELTLQPKTEQRLHKVSFYIDEGKGEALTKELSQLLEKRGLDVKIIYSWGKNVDVIPRGAGKGEALEYLLKKLQAEGIFPVNTLACGDSEHDAELFSIPDVHGVMVSNSQEELLKWRSENALNNLKVIHSTERCADGIIQAIGHFNLGPDLSPRDVSEFLDRKMDNVNPGHEVVRFYLFYERLRRGEIKNYETYIASFKDSCLHAAVLFHPSGAEKSLRDTIDELKKCYGDKRGKKFWVWVDQVLVTDTIPGKWIVKFDKWEQCEDESQCCKTTVEFTSKGGDLVWEKVKQIWSEESKVKDDNSSWIL | 
